According to patent US9512105B2, “1-substituted 4-arylpiperazine as kappa opioid receptor antagonists” (RESEARCH TRIANGLE INSTITUTE, priority 2011, dated 2016):
Some of these results come from one statement about several compounds together.

By UniProt entry, the sequences of proteins in these tests, tags left out. Where a name states a change or a piece, a line headed by the entry shows the natural chain unless it says otherwise.
UniProt P41145: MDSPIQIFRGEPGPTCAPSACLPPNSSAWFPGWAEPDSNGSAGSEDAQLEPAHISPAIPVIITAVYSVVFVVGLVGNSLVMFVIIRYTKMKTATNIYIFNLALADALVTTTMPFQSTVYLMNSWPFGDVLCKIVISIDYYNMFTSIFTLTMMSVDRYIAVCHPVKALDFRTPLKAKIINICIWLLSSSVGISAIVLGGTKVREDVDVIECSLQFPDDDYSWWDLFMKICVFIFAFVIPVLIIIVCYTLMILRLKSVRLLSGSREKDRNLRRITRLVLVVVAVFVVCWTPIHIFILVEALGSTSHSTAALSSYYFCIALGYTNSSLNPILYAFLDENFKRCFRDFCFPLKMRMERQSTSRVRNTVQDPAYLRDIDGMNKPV

Target: T1, cloned human κ-opioid receptor (Homo sapiens, UniProt P41145)
T1 construct: expressed in transfected cells
Experiment: Inhibition of U69,593-stimulated [35S]GTPγS binding
Type: biochemical
Settings: ratio of Ke values, selectivity for κ relative to δ; Dihydrochloride

SMILES: Cc1cccc(Oc2ccc(C(=O)N[C@H](CN3CCN(c4cccc(O)c4)[C@@H](C)C3)C(C)C)cc2C)c1.Cl.Cl [Compound 19g, N-[(2S)-1-[(3S)-4-(3-Hydroxyphenyl)-3-methylpiperazin-1-yl]-3-methylbutan-2-yl]-3-methyl-4-(3-methylphenoxy)benzamide Dihydrochloride]
- δ/κ: > 131
